In this assay the target is SAR1B (human (endogenous in VA-13, HepG2-derived)) (UniProt Q9Y6B6). The experiment in a line: co-IP; Pierce Co-Immunoprecipitation Kit; lysates of VA-13 cells, control or treated with 35 mM ethanol for 72 h; lysates normalised by the target protein; non-specific mouse and rabbit IgG as controls; Western blot. (In general: In western blotting, separated proteins are transferred to a membrane and probed.)

Chains of the proteins cited; added tags and fusions are not shown. Residues count along the entry.
UniProt Q9Y6B6: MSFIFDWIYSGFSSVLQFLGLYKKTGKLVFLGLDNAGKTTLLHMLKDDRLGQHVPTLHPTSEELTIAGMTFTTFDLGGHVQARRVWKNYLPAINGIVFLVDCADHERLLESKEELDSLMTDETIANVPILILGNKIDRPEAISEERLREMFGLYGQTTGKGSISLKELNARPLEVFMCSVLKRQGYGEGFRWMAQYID
UniProt P30101, residues 25-505: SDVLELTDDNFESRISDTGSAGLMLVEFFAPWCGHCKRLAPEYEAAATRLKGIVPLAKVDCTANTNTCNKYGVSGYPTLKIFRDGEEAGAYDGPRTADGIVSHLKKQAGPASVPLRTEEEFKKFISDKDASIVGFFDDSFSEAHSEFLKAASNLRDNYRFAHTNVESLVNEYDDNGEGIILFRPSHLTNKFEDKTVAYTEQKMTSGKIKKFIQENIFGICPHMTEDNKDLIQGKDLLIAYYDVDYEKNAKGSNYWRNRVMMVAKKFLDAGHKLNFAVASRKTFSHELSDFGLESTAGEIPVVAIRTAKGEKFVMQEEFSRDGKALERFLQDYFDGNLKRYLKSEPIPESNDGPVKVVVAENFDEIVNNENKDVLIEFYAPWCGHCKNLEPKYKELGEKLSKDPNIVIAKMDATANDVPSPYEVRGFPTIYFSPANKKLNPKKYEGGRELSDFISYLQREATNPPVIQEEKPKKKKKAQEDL

No constants are given. Whether binding was seen depends on the method and setting. Binding seen in cells or lysates may run through a third protein.

As for “protein disulfide isomerase A3 (human) (from UniProt P30101 25-505) (enzyme)”, the binding entry was “no binding”.

For the origin of these results see PMC4660820.
